# Assay results from PubChem BioAssay AID248 (DTP/NCI, 2004).
# The list shows only some results of the screen, not a fair sample: it gathers tests that were run many times, whatever their T/C, doses with no T/C, and many T/C values between a quarter and a half above the control. Further doses and runs are listed elsewhere. T/C gives the treated animals as a percentage of the vehicle group. Some doses have a count of surviving animals in place of a T/C: the source holds a T/C of zero for them, seemingly a mark for toxic or unscored doses. Some doses without a T/C left all or most animals alive at the check, yet need not have been tolerated: the source hardly ever lists a survival T/C far under the control, and the zero likely stands for such cases as well. Survivors were counted at the toxicity check, usually on the fifth day, unless a day is given; later deaths do not show. Schedule codes are those of the source, taken here to give the interval after Q, in days (D) or hours (H), and the number of doses after X. Some entries hold several experiments; the results are listed from low to high. For survival time, the PubChem record calls one and a half times the control and up active, and a quarter to a half above the control has no call in these data; cut-offs in other NCI protocols can differ.
# System: L1210 leukemia ip in BDF1 mice, survival T/C
# Test: NCI In Vivo Anticancer Drug Screen. Data for tumor model L1210 Leukemia (intraperitoneal) in B6D2F1 (BDF1) mice
# Settings: T/C endpoint: mean survival time, higher T/C = longer survival
# [1] = dose: 300.0 mg/kg/injection, schedule: Q01DX001 (ip), vehicle: saline
# [2] = dose: 200.0 mg/kg/injection, schedule: Q04DX003 (ip), vehicle: saline
# [3] = dose: 400.0 mg/kg/injection, schedule: Q01DX001 (ip), vehicle: saline
# [4] = dose: 400.0 mg/kg/injection, schedule: Q04DX003 (ip), vehicle: saline
# [5] = dose: 200.0 mg/kg/injection, schedule: Q04DX002 (ip), vehicle: Klucel (hydroxypropylcellulose) (HPC)
# [6] = dose: 400.0 mg/kg/injection, schedule: Q04DX002 (ip), vehicle: Klucel (hydroxypropylcellulose) (HPC)
# [7] = dose: 400.0 mg/kg/injection, schedule: Q04DX003 (ip), vehicle: saline with Tween-80
# [8] = dose: 200.0 mg/kg/injection, schedule: Q04DX003 (ip), vehicle: Klucel (hydroxypropylcellulose) (HPC)
# [9] = dose: 400.0 mg/kg/injection, schedule: Q04DX003 (ip), vehicle: Klucel (hydroxypropylcellulose) (HPC)
# [10] = dose: 400.0 mg/kg/injection, schedule: Q01DX009 (ip), vehicle: Klucel (hydroxypropylcellulose) (HPC)
smiles,measurement,setting,value
N/C(=N\N=C\c1ccccn1)c1ccccn1,survivor count,"dose: 5.0 mg/kg/injection, schedule: Q01DX001 (ip), vehicle: water",4 of 4
same,survivor count,"dose: 20.0 mg/kg/injection, schedule: Q01DX001 (ip), vehicle: water",4 of 4
same,survivor count,"dose: 40.0 mg/kg/injection, schedule: Q01DX001 (ip), vehicle: water",0 of 4
same,survivor count,"dose: 50.0 mg/kg/injection, schedule: Q01DX001 (ip), vehicle: water",0 of 4
same,survivor count,"dose: 80.0 mg/kg/injection, schedule: Q01DX001 (ip), vehicle: water",0 of 4
same,survivor count,"dose: 100.0 mg/kg/injection, schedule: Q01DX001 (ip), vehicle: water",0 of 4
same,survivor count,"dose: 200.0 mg/kg/injection, schedule: Q01DX001 (ip), vehicle: water",0 of 4
same,survivor count,"dose: 400.0 mg/kg/injection, schedule: Q01DX001 (ip), vehicle: water",0 of 4
N=C(N)SCc1ccc(Cl)cc1,survivor count,"dose: 100.0 mg/kg/injection, schedule: Q04DX002 (ip), vehicle: saline",2 of 3
same,survivor count,"dose: 200.0 mg/kg/injection, schedule: Q04DX002 (ip), vehicle: saline",0 of 3
same,survivor count,"dose: 400.0 mg/kg/injection, schedule: Q04DX002 (ip), vehicle: saline",0 of 3
O=C1OC(c2ccccc2)=N/C1=C\c1ccccc1Cl,survivor count,"dose: 400.0 mg/kg/injection, schedule: Q04DX002 (ip), vehicle: saline with Tween-80",3 of 3
C=COC(=O)NC(C(=O)O)C(C)CC (configuration not stated),survivor count,[1],0 of 6
O=C1CNC(=O)N1CCCl,survivor count,[2],6 of 6
CC1=NNC(=O)C1CCO (configuration not stated),survivor count,"dose: 100.0 mg/kg/injection, schedule: Q01DX009 (ip), vehicle: Klucel (hydroxypropylcellulose) (HPC)",5 of 6
CCCCCCCCN(CC)CC,survivor count,[3],2 of 4
C[n+]1c2cc(N)ccc2cc2ccc(N)cc21,T/C,"dose: 8.0 mg/kg/injection, schedule: Q01DX009 (ip), vehicle: saline",126 and 130 % of control
same,T/C,"dose: 12.0 mg/kg/injection, schedule: Q01DX009 (ip), vehicle: saline",128 % of control
same,T/C,"dose: 12.5 mg/kg/injection, schedule: Q01DX009 (ip), vehicle: saline",130 % of control
same,survivor count,"dose: 18.0 mg/kg/injection, schedule: Q01DX009 (ip), vehicle: saline",6 of 6
same,survivor count,"dose: 25.0 mg/kg/injection, schedule: Q01DX009 (ip), vehicle: saline",0 of 6
same,survivor count,"dose: 25.0 mg/kg/injection, schedule: Q04DX003 (ip), vehicle: saline",5 of 6
same,survivor count,"dose: 50.0 mg/kg/injection, schedule: Q04DX003 (ip), vehicle: saline",1 of 6
same,survivor count,"dose: 100.0 mg/kg/injection, schedule: Q04DX003 (ip), vehicle: saline",0 of 6
same,survivor count,[2],0 of 6
same,survivor count,[4],0 of 6
CN(CCCl)CC1C(c2ccccc2)C1c1ccccc1 (configuration not stated),survivor count,[5],0 of 3
same,survivor count,[6],0 of 3
Oc1ccc(C(O)(c2ccccc2)c2ccc(O)c3ccccc23)c2ccccc12,survivor count,"dose: 400.0 mg/kg/injection, schedule: Q01DX009 (ip), vehicle: saline with Tween-80",2 of 6
O=C(O)CNCc1ccc(Cl)cc1,survivor count,"dose: 200.0 mg/kg/injection, schedule: Q01DX009 (ip), vehicle: water",0 of 6
same,survivor count,"dose: 400.0 mg/kg/injection, schedule: Q04DX003 (ip), vehicle: water",3 of 6
CCCCCCCCC(=O)N(C)OC,survivor count,[7],1 of 6
CC1=CC(=O)N(C2=CC(=O)C=CC2=O)/C1=C/C#N,survivor count,"dose: 100.0 mg/kg/injection, schedule: Q01DX001 (ip), vehicle: Klucel (hydroxypropylcellulose) (HPC)",1 of 6
same,survivor count,"dose: 200.0 mg/kg/injection, schedule: Q01DX001 (ip), vehicle: Klucel (hydroxypropylcellulose) (HPC)",1 of 6
O=c1[nH]cnc2c1ncn2CCCCCCl,survivor count,[8],0 of 6
same,survivor count,[9],0 of 6
CCOC(=O)CN1N=C([P+](c2ccccc2)(c2ccccc2)c2ccccc2)CC1(c1ccccc1)c1ccccc1,survivor count,"dose: 75.0 mg/kg/injection, schedule: Q01DX001 (ip), vehicle: saline",2 of 6
same,survivor count,"dose: 150.0 mg/kg/injection, schedule: Q01DX001 (ip), vehicle: saline",2 of 6
same,survivor count,[1],2 of 6
O=S(=O)(F)c1cc(Cl)c(S)c(Cl)c1,survivor count,"dose: 200.0 mg/kg/injection, schedule: Q01DX009 (ip), vehicle: Klucel (hydroxypropylcellulose) (HPC)",0 of 6
same,survivor count,[10],0 of 6
OCC(Br)CCl (configuration not stated),survivor count,"dose: 100.0 mg/kg/injection, schedule: Q01DX009 (ip), vehicle: saline",3 of 6
same,survivor count,"dose: 200.0 mg/kg/injection, schedule: Q01DX009 (ip), vehicle: saline",0 of 6
same,survivor count,"dose: 400.0 mg/kg/injection, schedule: Q01DX009 (ip), vehicle: saline",0 of 6
O=c1ccs[nH]1,survivor count,"dose: 50.0 mg/kg/injection, schedule: Q04DX003 (ip), vehicle: saline with Tween-80",1 of 6 and 4 of 6
same,survivor count,"dose: 100.0 mg/kg/injection, schedule: Q04DX003 (ip), vehicle: saline with Tween-80",0 of 6
same,survivor count,"dose: 200.0 mg/kg/injection, schedule: Q04DX003 (ip), vehicle: saline with Tween-80",0 of 6
same,survivor count,[7],0 of 6
Cc1ccccc1NC(=O)Oc1ccc2c(C)cc(=O)oc2c1,survivor count,[10],6 of 6
CN(C)/N=C/c1ccccn1,survivor count,[4],0 of 6
Oc1ccccc1C=Nc1ccccc1O,T/C,"dose: 50.0 mg/kg/injection, schedule: Q04DX002 (ip), vehicle: gum acacia",125 % of control
Cc1cc(N(CCOS(C)(=O)=O)CCOS(C)(=O)=O)ccc1C=Nc1cccc(C(=O)O)c1,survivor count,"dose: 80.0 mg/kg/injection, schedule: Q04DX003 (ip), vehicle: Klucel (hydroxypropylcellulose) (HPC)",6 of 6
same,survivor count,"dose: 100.0 mg/kg/injection, schedule: Q04DX003 (ip), vehicle: Klucel (hydroxypropylcellulose) (HPC)",6 of 6
same,survivor count,[8],3 of 6
same,survivor count,[9],0 of 6
CSc1ccnc2n[nH]nc12,survivor count,"dose: 400.0 mg/kg/injection, schedule: Q01DX001 (ip), vehicle: Klucel (hydroxypropylcellulose) (HPC)",1 of 6
same,survivor count,[9],1 of 6
CCN(CCNC(=O)Nc1ccccc1OC)c1ccccc1,survivor count,"dose: 100.0 mg/kg/injection, schedule: Q04DX002 (ip), vehicle: Klucel (hydroxypropylcellulose) (HPC)",0 of 6
same,survivor count,[5],0 of 6
same,survivor count,[6],0 of 6
CCCC(CN(CCN(C)C)Cc1ccccc1)c1ccc(OC)cc1 (configuration not stated),survivor count,"dose: 200.0 mg/kg/injection, schedule: Q01DX001 (ip), vehicle: saline",1 of 6
same,survivor count,[3],0 of 6
